Measured values published in PMC5751205, “Rapid Non-Enzymatic Glycation of the Insulin Receptor under Hyperglycemic Conditions Inhibits Insulin Binding In Vitro: Implications for Insulin Resistance” (International Journal of Molecular Sciences, 2017).
No end group written: not given here.

Sequences of proteins named here, by UniProt entry; tags and fusion partners are left off. A change or cut given only in a name is not applied to a line headed by its entry.
UniProt P06213: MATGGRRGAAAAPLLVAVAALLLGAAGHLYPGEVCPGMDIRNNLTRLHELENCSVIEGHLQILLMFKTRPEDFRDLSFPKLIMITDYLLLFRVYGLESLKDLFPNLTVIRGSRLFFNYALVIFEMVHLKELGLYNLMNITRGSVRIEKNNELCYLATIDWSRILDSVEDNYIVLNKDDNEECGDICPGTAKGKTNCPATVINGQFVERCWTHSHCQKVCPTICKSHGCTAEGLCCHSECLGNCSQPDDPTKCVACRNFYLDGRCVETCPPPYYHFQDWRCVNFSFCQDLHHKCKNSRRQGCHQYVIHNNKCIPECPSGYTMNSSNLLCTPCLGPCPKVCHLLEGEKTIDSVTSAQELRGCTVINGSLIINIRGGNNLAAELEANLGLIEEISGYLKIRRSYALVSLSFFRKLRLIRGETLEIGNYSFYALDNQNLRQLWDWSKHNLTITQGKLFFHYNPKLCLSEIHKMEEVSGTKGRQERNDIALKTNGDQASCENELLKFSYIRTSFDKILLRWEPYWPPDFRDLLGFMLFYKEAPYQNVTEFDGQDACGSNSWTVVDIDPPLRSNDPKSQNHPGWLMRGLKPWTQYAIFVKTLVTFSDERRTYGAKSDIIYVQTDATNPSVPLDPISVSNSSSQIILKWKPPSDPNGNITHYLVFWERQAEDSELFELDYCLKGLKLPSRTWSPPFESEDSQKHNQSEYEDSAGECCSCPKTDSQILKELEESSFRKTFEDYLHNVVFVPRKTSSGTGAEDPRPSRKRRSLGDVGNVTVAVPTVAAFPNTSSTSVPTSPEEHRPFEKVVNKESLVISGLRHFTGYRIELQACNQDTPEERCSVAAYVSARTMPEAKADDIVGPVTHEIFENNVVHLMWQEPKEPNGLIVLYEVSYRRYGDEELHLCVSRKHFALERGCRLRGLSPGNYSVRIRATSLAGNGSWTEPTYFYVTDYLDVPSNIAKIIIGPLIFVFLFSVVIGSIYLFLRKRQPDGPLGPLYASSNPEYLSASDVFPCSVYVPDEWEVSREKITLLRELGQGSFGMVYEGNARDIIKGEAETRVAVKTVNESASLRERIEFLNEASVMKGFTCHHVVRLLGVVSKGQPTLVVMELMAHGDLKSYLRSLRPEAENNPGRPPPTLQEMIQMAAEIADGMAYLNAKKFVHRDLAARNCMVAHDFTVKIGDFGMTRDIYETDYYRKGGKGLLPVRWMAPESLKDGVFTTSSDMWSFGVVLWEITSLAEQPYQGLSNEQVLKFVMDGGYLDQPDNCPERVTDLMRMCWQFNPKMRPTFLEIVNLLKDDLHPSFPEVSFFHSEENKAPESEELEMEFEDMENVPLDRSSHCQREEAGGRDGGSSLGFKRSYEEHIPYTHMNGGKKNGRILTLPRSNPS

test: Non-enzymatic glycation of insulin and IR peptides followed by MALDI-TOF mass spectrometry; format: physicochemical; conditions: 20 mM glucose in DMEM, six days, 36–38 °C, peptide 0.1 mg/mL, signal height relative to unglycated peptide peak, average of three experiments

Row | Substance | % Glycation 6 Day 20 mM, primary site | % Glycation 6 Day 20 mM, secondary site
1 | ENCSVIEGHLQ [51-61, synthetic insulin receptor peptide, residues 51-61 of human IR, insulin-like] | 6% | 0%
2 | ESEDSQKHNQSEYEDS [689-705, synthetic insulin receptor peptide, residues 689-705 of human IR] | 0/0% | 0/0%
3 | GMDIRNNLTRLHELE [37-51, synthetic insulin receptor peptide, residues 37-51 of human IR (UniProt P06213)] | 11% | 0%
4 | H-FRVYGLESLKDLF [91-103] | 13% | 4%
5 | H-NLTVIRGSRLFFNY [105-118] | 2.4% | 0%
6 | H-TIDWSRILDS [157-166] | 4% | 2%
7 | H-TQGKLFFHYNPK [453-464] | 9% | 0%
8 | HLYFGEVCPGMDIRNN [28-43, synthetic insulin receptor peptide, residues 28-43 of human IR (UniProt P06213)] | 0/0% | 0/0%
9 | Insulin: recombinant human insulin (Lilly for glycation; Sigma-Aldrich for IR binding) | 24% | 6%
10 | KTFEDYLHNVVFV [730-742, synthetic insulin receptor peptide, residues 730-742 of human IR] | 11% | 0%

same assay, conditions: highest glucose concentrations

Row | Substance | Degree of glycation at the highest glucose concentrations
11 | Insulin: recombinant human insulin (Lilly for glycation; Sigma-Aldrich for IR binding) | tri-glycated
